PubChem BioAssay AID1259308 – NCATS | 2017
The whole screen tested about 59,000 reagents; shown is a part drawn at random. About 1,510 of all reagents (2.6%) count as active. 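Calls use total luciferase alone and ignore viability, so some active siRNAs may act by altering cell number.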 Unmarked entries are inactive. Reagents against one gene are numbered here.

- Aim: 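Knock-downs that increase output of a recombinant reporter protein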 (primary screen)
- System: human HEK293 embryonic kidney cells stably expressing firefly luciferase (HEK-CMV-Luc2-Hygro)
- Knock-down reagent: single siRNA against human genes, 0.8 pmol siRNA per well
- Timing: 72 h
- Measurement: 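Luciferase light (ONE-Glo) measured on one replicate plate set and viability (CellTiter-Glo) on the other, scaled to a negative control siRNA, with robust z-scores and luciferase per cell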
- Direction: total luciferase, z-score and total luciferase, % of control: higher = more reporter protein produced; luciferase per cell, z-score: higher = more reporter output per viable cell; viable cells, % of control: higher = more viable cells
- Hit rule: 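Active when the median/MAD z-score for overall luciferase is greater than 3; a gene was taken forward for validation with new siRNAs if at least two of its three siRNAs passed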
- Calls: active = raised luciferase; inactive = no rise

no.	gene symbol	siRNA no.	total luciferase, z-score	total luciferase, % of control	luciferase per cell, z-score	viable cells, % of control
1	LINC00336	1	0.453	90.9	1.1	76
2	LINC00336	2	-1.51	51.9	-1.35	82.7
3	LINC00336	3	1.72	116	0.672	109
4	RFTN1	1	0.386	89.6	-0.0299	101
5	RFTN1	2	1.03	102	0.845	91.6
6	RFTN1	3	1.64	114	1.94	76.6
7	CDCA4	1	0.987	102	0.368	103
8	CDCA4	2	0.502	91.9	0.113	99.7
9	CDCA4	3	0.375	89.3	1.25	71.9
10	APBB2	1	0.168	85.2	0.275	88.6
11	APBB2	2	-0.0238	81.4	0.0381	90.1
12	APBB2	3	-1.62	49.7	-0.64	65.7
13	BAG3	1	2.12	124	2.2	77.7
14	BAG3	2	-0.0148	81.6	-0.151	94.9
15	BAG3	3	-0.391	74.1	1.58	54.6
16	SBNO2	1	1.38	109	0.802	98.8
17	SBNO2	2	-0.175	78.4	-0.263	93.9
18	SBNO2	3	-0.443	73.1	1.08	61.4
19	TASOR	1	1.12	104	1.2	84.9
20	TASOR	2	0.691	95.6	0.365	97.1
21	TASOR	3	2.91	140	2.95	71.7
22	LAMP2	1	-0.656	68.8	-1.25	107
23	LAMP2	2	0.269	87.2	0.217	92.1
24	LAMP2	3	0.875	99.3	0.592	94.9
25	LCLAT1	1	-1.08	60.4	0.00942	67.3
26	LCLAT1	2	-0.127	79.4	0.378	80.3
27	LCLAT1	3	-1.63	49.5	-1.1	73.8
28	CAMLG	1	0.124	84.4	0.269	87.8
29	CAMLG	2	-1.11	59.8	0.000429	66.8
30	CAMLG	3	4.17 (active)	165	2.75	89.2
31	LINC00922	1	-1.35	55	-0.88	77.5
32	LINC00922	2	-0.325	75.4	-0.104	86.6
33	LINC00922	3	-1.13	59.5	0.875	52.8
34	GARIN1A	1	3.15 (active)	145	3.84	58.8
35	GARIN1A	2	0.217	86.2	0.58	82.7
36	GARIN1A	3	-0.915	63.7	0.249	66.7
37	ELAPOR1	1	0.615	94.1	0.902	82.9
38	ELAPOR1	2	-0.486	72.2	-0.386	89.4
39	ELAPOR1	3	1.04	103	1.02	87.6
40	OR52B2	1	-0.599	70	0.429	69.8
41	OR52B2	2	-2.29	36.3	-1.86	66.2
42	OR52B2	3	0.0777	83.4	0.476	82.3
43	BIRC3	1	0.228	86.4	-0.282	104
44	BIRC3	2	0.229	86.4	0.367	87.7
45	BIRC3	3	0.456	91	-0.618	120
46	PDGFC	1	0.537	92.6	0.00318	103
47	PDGFC	2	-0.644	69.1	-0.822	95.8
48	PDGFC	3	0.043	82.7	-0.164	96.5
49	DHX15	1	1.46	111	1.81	77
50	DHX15	2	1.89	120	1.48	90.5
51	DHX15	3	4.52 (active)	172	3.25	81.6
52	MROH7	1	0.195	85.8	0.00475	95.7
53	MROH7	2	-0.921	63.6	-0.6	83.2
54	MROH7	3	-0.393	74.1	0.0552	81.6
55	ETV3	1	-0.302	75.9	0.0302	84.1
56	ETV3	2	-0.018	81.5	0.714	75.5
57	ETV3	3	-1.53	51.6	-1.46	84.5
58	PLEKHG1	1	-1.44	53.2	-0.333	64.9
59	PLEKHG1	2	0.687	95.6	0.407	95.9
60	PLEKHG1	3	-1.63	49.4	-0.954	70.9
61	ROR2	1	0.354	88.9	0.552	85.9
62	ROR2	2	1.66	115	1.11	95.8
63	ROR2	3	-0.344	75	-0.919	107
64	SLC16A10	1	-0.0611	80.7	-0.856	113
65	SLC16A10	2	0.546	92.7	0.0285	103
66	SLC16A10	3	1.22	106	0.608	101
67	DIP2B	1	0.682	95.5	-0.442	120
68	DIP2B	2	0.824	98.3	0.973	85
69	DIP2B	3	-0.0403	81.1	-0.658	108
70	CFAP221	1	0.118	84.2	0.369	85.4
71	CFAP221	2	0.717	96.1	1.21	78.1
72	CFAP221	3	1.42	110	1.36	86.2
73	MOSMO	1	0.0581	83	-0.333	101
74	MOSMO	2	0.508	92	1.22	74.5
75	MOSMO	3	1.04	102	1.39	79.4

Only “viable cells, % of control” (8 entries from above):
LAMP2 #1 = 107
LAMP2 #2 = 92.1
LAMP2 #3 = 94.9
LCLAT1 #1 = 67.3
LCLAT1 #2 = 80.3
LCLAT1 #3 = 73.8
CAMLG #1 = 87.8
CAMLG #2 = 66.8
